We go through 18 compounds from PubChem BioAssay AID328 (DTP/NCI, 2004).

Each structure is given as a SMILES string. The list shows only some results of the screen, not a fair sample: it is rich in T/C values a quarter to a half above the control, in often repeated tests (any T/C) and in doses without a T/C. Other doses and runs of a compound stand elsewhere. T/C: endpoint of the treated group in % of that of the vehicle group. Some entries give survivors of the animals treated and no T/C: the source holds a T/C of zero for them, seemingly a mark for toxic or unscored doses. Some survivor counts are full or nearly so, which does not show that the dose was tolerated: survival well below the control is almost never listed, so the zero probably covers shortened survival too. Survivors were counted at the toxicity check, usually on the fifth day, unless a day is given; later deaths do not show. Schedules are NCI's codes, taken here to give the interval after Q, in days (D) or hours (H), and the number of doses after X. Some doses were run more than once; their values stand side by side, smallest first. Where survival is the endpoint, this PubChem deposit counts one and a half times the control or more as active, and values a quarter to a half above the control carry no call in these data; other NCI protocols may use other cut-offs. Some T/C values are followed by the survivors on the day toxicity was checked, most often the fifth; without a count, all were alive then.

This test has as its system BDF1 mice, P388 leukemia ip, median survival T/C. In words: NCI In Vivo Anticancer Drug Screen. Data for tumor model P388 Leukemia (intraperitoneal) in B6D2F1 (BDF1) mice. The conditions noted are these: T/C endpoint: median survival time, higher T/C = longer survival. The gist of the method: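 Reported as T/C, where T is the survival measurement in dosed animals and C the same measurement in vehicle controls.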

Setting [1] is: dose: 100.0 mg/kg/injection, schedule: Q01DX009 (ip), vehicle: Klucel (hydroxypropylcellulose) (HPC).
Where [2] appears, read: dose: 200.0 mg/kg/injection, schedule: Q04DX003 (ip), vehicle: saline with Tween-80.
[3] abbreviates: dose: 200.0 mg/kg/injection, schedule: Q01DX009 (ip), vehicle: saline with Tween-80.
Setting [4] is: dose: 200.0 mg/kg/injection, schedule: Q04DX003 (ip), vehicle: saline.
Where [5] appears, read: dose: 50.0 mg/kg/injection, schedule: Q01DX009 (ip), vehicle: saline.
Where [6] appears, read: dose: 400.0 mg/kg/injection, schedule: Q04DX003 (ip), vehicle: saline.
Where [7] appears, read: dose: 400.0 mg/kg/injection, schedule: Q04DX003 (ip), vehicle: saline with Tween-80.

As for `CN(C)c1ccc(C(=O)c2ccccc2)cc1`, the survivor count runs as follows: (dose: 200.0 mg/kg/injection, schedule: Q01DX009 (ip), vehicle: Klucel (hydroxypropylcellulose) (HPC)) 6 of 6; (dose: 400.0 mg/kg/injection, schedule: Q01DX009 (ip), vehicle: Klucel (hydroxypropylcellulose) (HPC)) 5 of 6.

Take `CN(N=O)C(=O)NC(C=O)C(O)C(O)C(O)CO` (stereo not given): the T/C (dose: 50.0 mg/kg/injection, schedule: Q01DX010 (ip), vehicle: saline) is 131 % of control. The survivor count is 6 of 6 (dose: 100.0 mg/kg/injection, schedule: Q01DX010 (ip), vehicle: saline) and 3 of 6 (dose: 200.0 mg/kg/injection, schedule: Q01DX010 (ip), vehicle: saline).

With `C=C1CC(c2ccc(S(=O)(=O)N3CCOCC3)cc2)OC1=O` (stereo not given), the T/C (dose: 12.5 mg/kg/injection, schedule: Q01DX009 (ip), vehicle: Klucel (hydroxypropylcellulose) (HPC)) is 147 % of control and the T/C (dose: 25.0 mg/kg/injection, schedule: Q01DX009 (ip), vehicle: Klucel (hydroxypropylcellulose) (HPC)) is 144 % of control. Besides, the survivor count runs as follows: (dose: 50.0 mg/kg/injection, schedule: Q01DX009 (ip), vehicle: Klucel (hydroxypropylcellulose) (HPC)) 4 of 6; under setting [1], 0 of 6.

As to `Cc1c2oc3c(C)ccc(C(=O)NC(C)Cc4ccccc4)c3nc-2c(C(=O)NC(C)Cc2ccccc2)c(N)c1=O` (stereo not given), the survivor count (dose: 400.0 mg/kg/injection, schedule: Q04DX002 (ip), vehicle: DMSO) was 3 of 6.

Turning to `CC(/C=C/C=C/c1ccccc1)=N\O`, under setting [1], the survivor count was 6 of 6.

As for `Cc1cc(=O)[nH]c2c1CCCCC2`, the survivor count (dose: 200.0 mg/kg/injection, schedule: Q01DX001 (ip), vehicle: saline sonified) is 5 of 6.

`Nc1nc(C=O)c(-c2cccc3ccccc23)c(=O)[nH]1`: under setting [2], the T/C was 127 % of control.

Regarding `O=S(=O)(O)c1ccc2c(N=Nc3ccccc3[As](=O)(O)O)c(O)c(S(=O)(=O)O)cc2c1`, the T/C (dose: 88.0 mg/kg/injection, schedule: Q01DX009 (ip), vehicle: saline with Tween-80) is 125 % of control; the T/C (dose: 132.0 mg/kg/injection, schedule: Q01DX009 (ip), vehicle: saline with Tween-80) is 140 % of control; the T/C under setting [3] was 145 % of control.

Turning to `C[n+]1ccc2ccccc2c1`, under setting [4], the survivor count was 3 of 6.

With `NC(=O)c1ccc[n+](Cc2c(Cl)cccc2Cl)c1`, the T/C is 140 % of control (dose: 1.9 mg/kg/injection, schedule: Q04DX003 (ip), vehicle: saline); 127 % of control (dose: 2.9 mg/kg/injection, schedule: Q04DX003 (ip), vehicle: saline); 145 % of control (dose: 4.4 mg/kg/injection, schedule: Q04DX003 (ip), vehicle: saline); 145 % of control (dose: 6.75 mg/kg/injection, schedule: Q04DX003 (ip), vehicle: saline); 129 % of control (dose: 8.9 mg/kg/injection, schedule: Q04DX003 (ip), vehicle: saline); 133 % of control (dose: 13.5 mg/kg/injection, schedule: Q04DX003 (ip), vehicle: saline). Besides, the survivor count by setting is: (dose: 4.12 mg/kg/injection, schedule: Q01DX009 (ip), vehicle: saline) 6 of 6; (dose: 27.0 mg/kg/injection, schedule: Q04DX003 (ip), vehicle: saline) 6 of 6.

Consider `CCN(CC)CCN1C(=O)c2cccc3cccc(c23)C1=O`, for which the survivor count under setting [5] is recorded as 6 of 6; the survivor count (dose: 200.0 mg/kg/injection, schedule: Q01DX009 (ip), vehicle: saline) is 2 of 6 and 3 of 6; the survivor count under setting [6] was 0 of 6. The T/C (dose: 100.0 mg/kg/injection, schedule: Q01DX009 (ip), vehicle: saline) is 127 [5 of 6 alive], 140, 150, 154 % of control.

For `CC1CCCC/C1=N/NC(=O)c1ccccc1` (stereo not given), the survivor count reads like this: under setting [3], 6 of 6; under setting [2], 6 of 6; under setting [7], 2 of 6.

Consider `CCOC(=O)C(CC)(CCC(C)C)C(=O)OCC`, for which the T/C is, setting by setting: (dose: 100.0 mg/kg/injection, schedule: Q04DX003 (ip), vehicle: saline) 127 % of control; under setting [4], 127 % of control; under setting [6], 131 % of control.

Consider `CC(C)(C)c1cc(CO)c(Sc2c(CO)cc(C(C)(C)C)cc2CO)c(CO)c1`, for which the survivor count runs as follows: (dose: 100.0 mg/kg/injection, schedule: Q01DX001 (ip), vehicle: saline with Tween-80) 6 of 6; (dose: 200.0 mg/kg/injection, schedule: Q01DX001 (ip), vehicle: saline with Tween-80) 6 of 6.

In the case of `Cn1c(=O)c2nc(-c3ccc(Cl)cc3)c(-c3ccc(Cl)cc3)nc2n(C)c1=O`, the survivor count (dose: 400.0 mg/kg/injection, schedule: Q01DX001 (ip), vehicle: saline with Tween-80) is listed as 5 of 6.

`Cc1ncnc2c1CCC2`: the survivor count is given as 2 of 6 (dose: 300.0 mg/kg/injection, schedule: Q01DX009 (ip), vehicle: saline with Tween-80) and 1 of 6 under setting [7].

On to `O=C(c1ccccc1Cl)c1cccc2ccccc12`, for which the T/C (dose: 265.0 mg/kg/injection, schedule: Q04DX003 (ip), vehicle: Klucel (hydroxypropylcellulose) (HPC)) is 127 % of control.

On to `O=CC1CO1` (stereo not given), for which the T/C (dose: 50.0 mg/kg/injection, schedule: Q01DX009 (ip), vehicle: saline sonified) was 136 % of control [5 of 6 alive]; the T/C under setting [5] is 125 % of control; the T/C (dose: 75.0 mg/kg/injection, schedule: Q01DX009 (ip), vehicle: saline) was 125 % of control. The survivor count (dose: 75.0 mg/kg/injection, schedule: Q01DX009 (ip), vehicle: saline sonified) was 3 of 6.
